PubChem BioAssay AID1259254 | NCATS – 2017
Purpose: 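Genome-wide screen for genes that prevent DNA re-replication in cancer cells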 (primary screen). System: human HCT116 colorectal cancer cells. Knock-down reagent: single siRNA against human genes. Timing: 3 days. Detection: 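Imaged Hoechst DNA stain sorts each cell into a cycle phase by DNA amount; per plate, G2 fraction set to 0% for non-targeting and 100% for GMNN siRNA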. Scale: G2 robust z-score: higher = more G2 cells, more excess DNA replication. Active means: 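An siRNA counts as active if its G2 robust z-score lies at least 5 MADs above the screen median; here such calls match roughly 38% of GMNN control or more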.
Here is an unselected part of about 59,000 deposited reagents. Of all reagents, about 1,550 (2.6%) were called active. 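G2 share is only a proxy for re-replication; each gene was hit by three separate siRNAs, and active genes were retested.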 Unmarked entries are inactive. The numbers tell different reagents against one gene apart. Not all columns of the deposit are shown. Not stated in the record: the amount of reagent.

SPMIP6 (GeneID 84688) #1
- G2 robust z-score: -0.954

SPMIP6 (GeneID 84688) #2
- G2 robust z-score: 2.36

SPMIP6 (GeneID 84688) #3
- G2 robust z-score: 3.13

IL22RA1 (GeneID 58985) #1
- G2 robust z-score: -0.405

IL22RA1 (GeneID 58985) #2
- G2 robust z-score: -1.13

IL22RA1 (GeneID 58985) #3
- G2 robust z-score: 0.175

CD300LD-AS1 (GeneID 146723) #1
- G2 robust z-score: -0.901

CD300LD-AS1 (GeneID 146723) #2
- G2 robust z-score: 1.09

CD300LD-AS1 (GeneID 146723) #3
- G2 robust z-score: -0.664

DDX20 (GeneID 11218) #1
- G2 robust z-score: -0.56

DDX20 (GeneID 11218) #2
- G2 robust z-score: -0.00265

DDX20 (GeneID 11218) #3
- G2 robust z-score: 4.13
